This test addresses YFP–DAT (dopamine transporter with N-terminal YFP) (UniProt Q01959). Briefly: FRET or BRET; live-cell acceptor-photobleaching FRET at the plasma membrane, HEK293 cells stably expressing YFP–DAT and transfected with Cry2–DAT or CFP–DAT; vehicle or 10 μM METH 2 min, blue light (488 nm, 4% laser output) as indicated.

Sequences of proteins named here, by UniProt entry; tags and fusion partners are left off.
UniProt Q01959: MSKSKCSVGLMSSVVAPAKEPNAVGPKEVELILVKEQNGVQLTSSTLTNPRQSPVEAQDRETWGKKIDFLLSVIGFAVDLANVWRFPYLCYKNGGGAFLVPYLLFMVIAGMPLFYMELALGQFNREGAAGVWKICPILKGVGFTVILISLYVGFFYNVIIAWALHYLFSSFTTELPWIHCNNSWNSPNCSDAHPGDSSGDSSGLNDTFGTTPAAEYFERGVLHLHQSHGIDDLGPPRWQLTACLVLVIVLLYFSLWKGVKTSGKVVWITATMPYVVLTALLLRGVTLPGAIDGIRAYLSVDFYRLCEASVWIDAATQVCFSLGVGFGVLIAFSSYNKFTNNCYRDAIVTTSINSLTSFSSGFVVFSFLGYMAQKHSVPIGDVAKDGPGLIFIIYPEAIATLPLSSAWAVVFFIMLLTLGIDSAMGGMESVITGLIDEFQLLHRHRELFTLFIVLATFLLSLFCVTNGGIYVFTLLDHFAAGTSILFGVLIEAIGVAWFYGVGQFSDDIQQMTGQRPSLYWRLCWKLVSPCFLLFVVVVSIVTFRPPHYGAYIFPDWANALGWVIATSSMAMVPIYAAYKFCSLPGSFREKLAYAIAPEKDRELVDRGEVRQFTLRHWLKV

Results are given in words; binding and its absence hold for the method and conditions named. Binding seen in cells or lysates may run through a third protein. Some entries that bind do so weakly or less than the wild type.

Drawing on publication PMC8203837, “Optogenetically-induced multimerization of the dopamine transporter increases uptake and trafficking to the plasma membrane” (The Journal of Biological Chemistry, 2021), this text covers binding for one substance.

As to CFP–DAT (from UniProt Q01959 1-620), the binding entry is “binds”.
